Values joined by “and” are separate entries in the source; they are usually repeats but may differ in a detail not shown here. Equal entries are not always repeated. This is one part of the list. This data set is noisy: repeats of one test often differ as much as different tests do.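 HEK293T cells were given each compound shortly before transfection with a reporter in which red mCherry is followed by the SARS-CoV-2 frameshift element and then GFP in the −1 frame, so GFP appears only after frameshifting.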
Legend:
[1] = system: SARS-CoV-2 -1 PRF reporter mCherry-FSE-GFP(-1); test: mCherry (red) intensity as percent of control; higher = higher upstream reporter expression; conditions: 10 µM; 24 h; HEK293T
[2] = system: SARS-CoV-2 -1 PRF reporter mCherry-FSE-GFP(-1); test: percent effect, decrease of GFP/mCherry ratio (-1 PRF reporter) relative to controls; higher = stronger frameshift inhibition; conditions: 10 µM; 24 h; HEK293T

SMILES	mCherry [1]	percent effect [2]
CC1(C)S[C@@H]2[C@H](NC(=O)[C@H](N)c3ccccc3)C(=O)N2[C@H]1C(=O)O [ampicillin]	91.7%	-2.87%
CC(=O)OC/C=C(C)/C=C/C=C(C)/C=C/C1=C(C)CCCC1(C)C [Vitamin A acetate]	83.1%	-1.21%
NC(=O)N/N=C/c1ccc([N+](=O)[O-])o1 [Nitrofural]	91.1%	-0.37%
COC(=O)Nc1nc2cc(C(=O)c3ccc(F)cc3)ccc2[nH]1 [flubendazole]	27.9%	-8.4%
CCCc1nn(C)c2c(=O)[nH]c(-c3cc(S(=O)(=O)N4CCN(C)CC4)ccc3OCC)nc12 [sildenafil]	104%	-6.72%
COc1cc(C(=O)NCc2ccc(OCCN(C)C)cc2)cc(OC)c1OC [trimethobenzamide]	106%	-3.34%
O=C(O)CCC(=O)c1ccc2oc3ccccc3c2c1 [furobufen]	73.8%	-8.48%
CC1=C(C(=O)O)N2C(=O)[C@@H](NC(=O)[C@H](N)c3ccc(O)cc3)[C@H]2SC1	98.8%	0.537%
O=C1O[C@H]([C@@H](O)CO)C(O)=C1O [Vitamin C]	74.8%	-5.31%
Cc1cn([C@H]2C[C@H](F)[C@@H](CO)O2)c(=O)[nH]c1=O [alovudine]	58.2%	15.1%
C[C@@H]1C[C@H]2[C@@H]3C[C@H](F)C4=CC(=O)C=C[C@]4(C)[C@H]3[C@@H](O)C[C@]2(C)[C@@]1(O)C(=O)CO [paramethasone]	61.1%	-2.24%
C[C@@H](O)[C@H]1C(=O)N2C(C(=O)O)=C(SCCNC=N)C[C@H]12 [Imipenem]	73.9%	-0.712%
CC(=O)[C@@]1(O)CC[C@H]2[C@@H]3CCC4=CC(=O)C=C[C@]4(C)[C@H]3[C@@H](O)C[C@@]21C [deprodone]	81.2%	-0.703%
CCCN(CC)C(CC)C(=O)Nc1c(C)cccc1C (configuration not stated) [etidocaine]	73.2%	-4%
CSc1ccc(C(=O)c2[nH]c(=O)[nH]c2C)cc1 [enoximone]	106%	-0.466%
OCCOCCN1CCN(C(c2ccccc2)c2ccc(Cl)cc2)CC1 (configuration not stated) [hydroxyzine]	109% and 108%	-3.33% and -3.93%
NC(=O)OCC(COC(N)=O)c1ccccc1 [felbamate]	96.9%	3.81%
CC(C)(Oc1ccc(C2CC2(Cl)Cl)cc1)C(=O)O (configuration not stated) [ciprofibrate]	120%	-10.6%

SMILES	mCherry [1]	percent effect [2]
CO[C@H](C(=O)[C@@H](O)[C@@H](C)O)[C@@H]1Cc2cc3cc(O[C@H]4C[C@@H](O[C@H]5C[C@@H](O)[C@H](O)[C@@H](C)O5)[C@H](O)[C@@H](C)O4)c(C)c(O)c3c(O)c2C(=O)[C@H]1O[C@H]1C[C@@H](O[C@H]2C[C@@H](O[C@H]3C[C@](C)(O)[C@H](O)[C@@H](C)O3)[C@@H](O)[C@@H](C)O2)[C@H](O)[C@@H](C)O1 [plicamycin]	14.8%	1.27%
CC(=O)O[C@H]1C[C@@]2(C)[C@@H](C[C@@H](O)[C@H]3[C@@]4(C)CC[C@@H](O)[C@@H](C)[C@@H]4CC[C@@]32C)/C1=C(\CCC=C(C)C)C(=O)O [Fusidic Acid]	87%	-6.21%
CCNC(=O)N1CCN(CCCC(c2ccc(F)cc2)c2ccc(F)cc2)CC1 [amperozide]	88.2%	-2.92%
CCCCCCCCCCCCCCCC[N+](C)(C)CCN(Cc1ccc(OC)cc1)c1ncccn1 [tonzonium bromide]	124%	-0.65%
CC1(C)OC(=O)NC1=O [dimethadione]	105%	-8.31%
CN1CCC(=C2c3ccccc3Sc3ccccc32)CC1 [pimethixene]	166%	-0.727%
C=CCOc1ccc(CC(=O)O)cc1Cl [alclofenac]	80.8%	-4.92%
N[C@@H](Cc1cc(I)c(Oc2ccc(O)c(I)c2)c(I)c1)C(=O)O	106%	-2.12%
CCC1(C)CC(=O)NC1=O (configuration not stated) [ethosuximide]	92%	-4.65%
CCCn1c(=O)c2nc(C34CC5CC(CC3C5)C4)[nH]c2n(CCC)c1=O [rolofylline]	83%	-16.5%
CCC(C)n1ncn(-c2ccc(N3CCN(c4ccc(OCC5COC(Cn6cncn6)(c6ccc(Cl)cc6Cl)O5)cc4)CC3)cc2)c1=O (configuration not stated)	87.9%	-5.41%
CN1C(C(=O)Nc2ccccn2)=C(O)c2sc(Cl)cc2S1(=O)=O [Lorcam]	103%	-0.492%
Cc1onc(-c2ccccc2Cl)c1C(=O)N[C@@H]1C(=O)N2[C@@H]1SC(C)(C)[C@@H]2C(=O)O	104%	-5.23%
CCC1Nc2cc(Cl)c(S(N)(=O)=O)cc2S(=O)(=O)N1 (configuration not stated) [ethiazide]	67.7%	3.86%
CN(C(=O)C(Cl)Cl)c1ccc(O)cc1 [diloxanide]	102%	-4.61%
CCOC(=O)Nc1nc2ccccc2[nH]1 [lobendazole]	102%	0.837%
CC(=O)c1cc2cccc(OCC(O)CNC(C)C)c2o1 (configuration not stated) [befunolol]	80.6%	-2.91%
CO[C@H]1C[C@@H]2CC[C@@H](C)[C@@](O)(O2)C(=O)C(=O)N2CCCC[C@H]2C(=O)O[C@H]([C@H](C)C[C@@H]2CC[C@@H](O)[C@H](OC)C2)CC(=O)[C@H](C)/C=C(\C)[C@@H](O)[C@@H](OC)C(=O)[C@H](C)C[C@H](C)/C=C/C=C/C=C/1C	117%	4.99%
